Screen size: about 340,000 compounds; about 170 (0.05%) were called active. This list was built around the results that the source calls inconclusive (neither active nor inactive); the mix of calls is not that of the screen. The call rests on the fitted dose curve; in most records, active means well fitted inhibition curve with a large enough effect in the signal ratio, with a control signal flat (not every such curve was filed as active); inconclusive means small, poorly fitted or top-dose-only effect, or effect the other way, or a change in a side signal; inactive means flat fitted curve, though single readings scatter; the % refers to the signal ratio. Potencies of inconclusive entries are doubtful fits and often do not repeat.
Assay: qHTS Assay to Find Inhibitors of Chronic Active B-Cell Receptor Signaling;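 on activity change, negative = inhibition: plate controls were basal doxycycline-induced cells for no effect and cells given 10 µM MG132 for full effect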
Settings: ABC-DLBCL IkBa-CBG/CBR reporter, luminescence ratio (green luciferase fused to IkBa over red control in TMD8 lymphoma cells), 4 h; activity change, negative = inhibition: at 46.1 µM (top of the series) unless noted
In short: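 Compounds up to 46 uM were incubated four hours with TMD8 cells whose green CBG68 luciferase is fused to IkappaBalpha; red CBR luminescence normalised the signal, and concentration-effect curves were fitted to fusion, red and ratio data.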
Potency means the concentration at half of the fitted maximal effect.

Row | SMILES | activity change, negative = inhibition | Potency
1 | COc1ccc(S(=O)(=O)Nc2cc3c4c(oc3c3ccccc23)CCCC4=O)cc1 | inconclusive: 10.5% | –
2 | CN1C(=O)NC(c2ccc(O)cc2)C2=C1CN(c1ccc(O)cc1)C2=O (stereo not drawn) | inconclusive: 3.94% | –
3 | O=C(CC(=O)c1ccccc1)Nc1cccnc1Cl | – | inconclusive: 13 µM [falling, partial curve]
4 | COc1ccc(N2CC(C(=O)N3CCC4(CC3)CC(=O)c3ccccc3O4)CC2=O)cc1 (stereo not drawn) | inactive: -6% | –
5 | O=C(Cn1c[n+](CC(=O)c2ccc([N+](=O)[O-])cc2)cn1)c1ccc([N+](=O)[O-])cc1 | inconclusive: -16.4% | –
6 | O=C(Nc1ccc(Cc2ccc(NC(=O)N3CCOCC3)cc2)cc1)N1CCOCC1 | inactive: -6.64% | –
7 | Cc1cccc(NC(=O)CSC2=NN3CCCC(=O)N=C3S2)c1C | inconclusive: 9.33% | –
8 | CCCCOc1ccccc1C1CC(=O)Nc2cc(C)c(C)cc21 (stereo not drawn) | inconclusive: 12.8% | –
9 | CNc1nc(C)nc(N/N=C/c2ccccc2)n1 | – | inconclusive: 20 µM [falling, partial curve]
10 | CC1CCCCC1NC(=O)NC(=O)CCl (stereo not drawn) | inconclusive: -12.4% | –
11 | O=C1CCCc2nc(N3CCN(c4ccccc4)CC3)ncc21 | inconclusive: 1.46% | –
12 | C=CC[C@H](CC(=O)N(CCO)Cc1ccccc1)C(=O)N[C@@H](COC(=O)[C@@H](CC=C)CC(=O)OC(C)(C)C)Cc1c[nH]c2ccccc12 | inconclusive: -0.0718% | –
13 | OC(COc1ccc2ccccc2c1)Cn1cncn1 (stereo not drawn) | inconclusive: 9.52% | –
14 | COc1ccccc1/C=C1\SC(=S)N(NS(=O)(=O)c2ccccc2)C1=O | inactive: 0.111% | –
15 | S=C(Nc1ccccc1)N1CCCN1c1ccccc1 | inactive: -7.67% | –
16 | CCc1ccc2nc(N(CCN(C)C)C(=O)c3ccc4ncsc4c3)sc2c1 | inactive: -14.6% | –
17 | COc1ccc(-c2cc3cc(OC)c(OC)cc3cn2)cc1 | inconclusive: -3.16% | –
18 | CCOC(=O)N1CCN(C(=O)c2cc(Cl)c(Cl)cc2C(=O)O)CC1 | inconclusive: 13.4% | –
19 | CCOC(=O)N1C(=O)[C@](c2ccc(Cl)cc2)(C(C)C)N1C(=O)OCC | – | inconclusive: 25.1 µM [falling, single point]
20 | O=C(Nc1ccc(-c2nc3cccnc3s2)cc1)c1cccnc1Cl | inactive: 1.4% | –
21 | CCOC(=O)C1=C(C)NC(SCC(=O)O)=NC1c1ccccc1 (stereo not drawn) | inconclusive: 5.59% | –

Among those listed so far, these have two or more sulfur atoms.
Row | SMILES | activity change, negative = inhibition | Potency
7 | Cc1cccc(NC(=O)CSC2=NN3CCCC(=O)N=C3S2)c1C | inconclusive: 9.33% | –
14 | COc1ccccc1/C=C1\SC(=S)N(NS(=O)(=O)c2ccccc2)C1=O | inactive: 0.111% | –
16 | CCc1ccc2nc(N(CCN(C)C)C(=O)c3ccc4ncsc4c3)sc2c1 | inactive: -14.6% | –

(more compounds)

Row | SMILES | activity change, negative = inhibition | Potency
22 | COc1ccccc1OC(=O)C1CC(=O)N(c2ccc(Cl)cc2)C1 (stereo not drawn) | inconclusive: 0.776% | –
23 | Cc1ccc(C(=O)CCC(=O)Nc2ccc(C)cn2)cc1 | inconclusive: 7.25% | –
24 | Cc1cccc(C(=O)Nc2cccc(OC(=O)c3cccc(C)c3)c2)c1 | – | inconclusive: 20 µM [falling, single point]
25 | Cc1cccnc1NC(=O)C1COc2ccccc2O1 (stereo not drawn) | inconclusive: 13.8% | –
26 | COc1ccc(N=C2SC(CC(=O)Nc3ccccc3)C(=O)N2CCc2ccccn2)cc1 (stereo not drawn) | inactive: 0.649% | –
27 | Cc1cc(NS(=O)(=O)c2ccc(NC(=O)Cc3ccc(Cl)c(Cl)c3)cc2)no1 | inactive: -2.54% | –
28 | CN(C)c1ccc(/C=C(/NC(=O)c2ccccc2)C(=O)NCCCn2ccnc2)cc1 | inactive: 1.07% | –
29 | Cc1cc2nc(-c3ccc(NC(=O)c4cccnc4)cc3)oc2cc1C | inconclusive: 5.88% | –
30 | C(=N/N1CCN(c2ccccc2)CC1)/c1cccs1 | inconclusive: 4.22% | –
31 | Cc1ccc(C)c(Nc2nc3ccccc3n3cnnc23)c1 | inconclusive: -2.47% | –
32 | O=C(O)[C@H]1CCCC[C@H]1C(=O)NCCc1ccccc1 | inconclusive: 16.4% | –
33 | CC(=O)c1cc2c(cc1NC(=O)c1c(-c3ccccc3)noc1C)OCO2 | inconclusive: 3.97% | –
34 | Cc1ccc(N(CC(O)Cn2c3ccccc3c3ccccc32)S(C)(=O)=O)c(C)c1 (stereo not drawn) | inconclusive: -0.217% | –
35 | Cn1c(=O)c(C#N)c(-c2ccc(F)cc2)c2cc(C(=O)c3cc(Cl)cc(Cl)c3O)cnc21 | inconclusive: -1.57% | –
36 | COCCn1c(C)cc(/C=C2\NC(=S)N(C)C2=O)c1C | inactive: 4.81% | –
37 | CCOC(=O)CCc1c(C)c2ccc(OCc3cc([N+](=O)[O-])ccc3OC)cc2oc1=O | inactive: -0.156% | –
38 | Cc1ccccc1CN1C(=O)c2ccccc2Sc2ccc(C(=O)NCCc3ccccc3)cc21 | inactive: -1% | –
39 | CCOc1ccccc1NC(=S)NCc1ccccc1 | inconclusive: 1.67% | –
40 | O=C(C1CCC1)N1CCN(S(=O)(=O)c2ccc(F)cc2)CC1 | inactive: 3.36% | –
41 | Cc1ccc(NC(=O)CSc2nc(N)cc(N)n2)cc1S(=O)(=O)N1CCOCC1 | – | inconclusive: 10 µM [falling, partial curve, poor fit]
42 | O=C(CNC(=O)c1ccc([N+](=O)[O-])cc1)N/N=C\c1ccc(OC(=O)c2ccccc2)cc1 | inconclusive: -6.09% | –

In the list so far, two contain fluorine:
Row | SMILES | activity change, negative = inhibition | Potency
35 | Cn1c(=O)c(C#N)c(-c2ccc(F)cc2)c2cc(C(=O)c3cc(Cl)cc(Cl)c3O)cnc21 | inconclusive: -1.57% | –
40 | O=C(C1CCC1)N1CCN(S(=O)(=O)c2ccc(F)cc2)CC1 | inactive: 3.36% | –

(listing goes on)

Row | SMILES | activity change, negative = inhibition | Potency
43 | O=C(O)c1cc(Cl)ccc1NC(=O)C1CCCO1 (stereo not drawn) | inconclusive: -13.1% | –
44 | CCCc1nnc(SCC(=O)Nc2nccs2)o1 | – | inconclusive: 35.5 µM [falling, single point]
45 | CCOC(=O)c1c(C)[nH]c(C)c1S(=O)(=O)N1CCC(C(=O)N2CCN(c3ccc(F)cc3)CC2)CC1 | inactive: -2.75% | –
46 | NNC(=O)c1cccc(S(=O)(=O)Nc2cccc(C(F)(F)F)c2)c1 | inconclusive: 0.974% | –
47 | O=C(N/N=C/c1ccc(Br)s1)c1c[nH]c2ccccc12 | – | inconclusive: 18.4 µM [falling, single point]
48 | CCOc1ccc(S(=O)(=O)N2CCOCC2)cc1NC(=O)CSCc1c(C)noc1C | inconclusive: 18.1% | –
49 | CCOC(=O)N1CCN(C(=O)CSc2nc(CC)nc3c2c(=O)n(C)c(=O)n3C)CC1 | inconclusive: -8.64% | –
50 | CCOC(=O)N1CCN(C(=O)Nc2ccc3oc(C)nc3c2)CC1 | – | inconclusive: 4.61 µM [rising, partial curve, poor fit]
51 | COc1ccc(OCC(O)CN2C(=O)NC(C)(C)C2=O)cc1 (stereo not drawn) | inconclusive: 0.639% | –
52 | Cc1cccc(Nc2sc(C(=O)c3ccc(Cl)cc3)c(N)c2C(N)=O)c1 | inconclusive: -0.813% | –
53 | CCCNC(=O)c1c(CSc2ccccc2)noc1C(=O)NCc1ccccc1 | inconclusive: 1.74% | –
54 | NC(=O)c1ccccc1N/C=C/C(=O)c1ccccc1 | – | inconclusive: 1.84 µM [rising, full curve, poor fit]
55 | Cn1nc(-c2ccccc2)c(CSc2ccccc2Cl)c1Cl | inconclusive: 14.6% | –
56 | Cc1ccc(S(=O)(=O)Oc2ccc(C3C4=C(CCCC4=O)OC4=C3C(=O)CCC4)cc2)cc1 | inactive: -0.0309% | –
57 | CCN(CC)C(=O)c1ccc(O)c(OC)c1 | inconclusive: -16.1% | –
58 | CC(C)c1nnc(NC(=O)CSc2nnc(-c3ccco3)o2)s1 | – | inconclusive: 25.1 µM [falling, single point]
59 | Cc1cc(NC(=O)CSc2n[nH]c(-c3ccccc3Br)n2)no1 | inconclusive: 1.16% | –
60 | C=CCSc1nnc(-c2cc(C(C)(C)C)nn2Cc2ccc(F)cc2)n1C | inconclusive: 11.2% | –
61 | Cc1ccc(-c2n[nH]c(=S)n2/N=C/C=C\c2ccccc2[N+](=O)[O-])cc1 | inconclusive: 10.2% | –
62 | Cc1cc(C)n(-c2nnc3n2N=C(c2ccccc2)CS3)n1 | inconclusive: -28.3% | –
63 | C=CCOc1ccc2ccccc2c1CNn1cn[nH]c1=S | – | inconclusive: 35.5 µM [falling, partial curve, poor fit]

Row | SMILES | activity change, negative = inhibition | Potency
64 | CCOc1ccc(-n2cc(-c3ccccc3)c3c(NC4CCCC4)ncnc32)cc1 | inactive: 15.5% | –
65 | CCCCCC(=O)NNC1CC(=O)N(c2ccccc2)C1=O (stereo not drawn) | inconclusive: -1.81% | –
66 | Cc1ccc2c(c1)C(=O)OC(C(=O)Nc1ccccc1C(=O)O)C2 (stereo not drawn) | inconclusive: 203% | –
67 | NC(=O)c1ccc(NC(=O)CCCN2C(=O)c3ccccc3C2=O)cc1 | – | inconclusive: 9.2 µM [rising, partial curve]
68 | O=S(=O)(Nc1ccc(-c2cn3ccccc3n2)cc1)c1ccccc1 | inconclusive: 16.9% | –
69 | CCC(=O)Nc1c(S(=O)(=O)c2ccc(C)cc2)c2nc3ccccc3nc2n1C(C)c1ccccc1 (stereo not drawn) | inconclusive: 25.7% | –
70 | COC(=O)C1=C(C)NC(=S)NC1c1ccc(-c2cc(Cl)ccc2Cl)o1 (stereo not drawn) | inactive: 4.25% | –
71 | CCOC(=O)C1CCN(c2c(N3CCCCCC3)c(=O)c2=O)CC1 | inconclusive: 12.1% | –
72 | CC(=O)c1ccc(OC(=O)CCc2nc3ccccc3s2)cc1 | inconclusive: -5.12% | –
73 | CC1CC1c1ccc(/C=C(\C#N)C(=O)Nc2ccc(Cl)cc2Cl)o1 (stereo not drawn) | inconclusive: -12.2% | –
74 | Cc1cc(C(=O)OCC(=O)c2c(N)n(C)c(=O)n(C)c2=O)c(C)n1-c1ccccc1 | inconclusive: 4.71% | –
75 | CCN(CC)CCCNC(=O)c1sc2ncn(CC(=O)Nc3ccc(C)c(Cl)c3)c(=O)c2c1C | – | inconclusive: 25.1 µM [falling, single point]
76 | Cc1ccc(NC(=O)C2CCCN(S(=O)(=O)c3cccs3)C2)cc1 (stereo not drawn) | inconclusive: 1.62% | –
77 | CCSC1=C(C#N)C(c2ccccc2C)CC(=O)N1 (stereo not drawn) | inconclusive: -6.95% | –
78 | N#Cc1cn(CCCOc2ccccc2)c2ccccc12 | inconclusive: 11% | –
79 | NC(=S)N/N=C/c1ccc(-c2ccc(SC(F)F)cc2)o1 | – | inconclusive: 5.62 µM [cytotoxic, single point]
80 | O=c1cc(-c2ccccc2)oc2ccc(Br)cc12 | inconclusive: 6.73% | –
81 | CC(C)(C)c1ccc(/C=C2\Oc3c(ccc(O)c3CN3CCN(CCO)CC3)C2=O)cc1 | – | inconclusive: 15.8 µM [falling, partial curve]
82 | COc1ccc(-c2csc3ncnc(N4CCN(C(=O)c5ccco5)CC4)c23)cc1 | inactive: -1.93% | –
83 | Fc1ccc(-c2nnc(CSc3nnc(-c4ccc5c(c4)OCO5)o3)o2)cc1 | inconclusive: 1.5% | –
